From patent US20230129326A1, “METHODS TO PREVENT SARS-COV-2 INFECTION AND TREAT COVID-19” (priority 2020, published 2023)
In brackets after ≈: the same amount, converted by molar mass.

Test system: SARS-CoV-2 isolate USA-UF-1/2020
Test: microbe, parasite or virus in culture
Format: cell-based
Conditions: Severe acute respiratory syndrome coronavirus 2, Vero C1008, read-out: EC50, 50% inhibition of SARS-CoV-2 isolate USA-UF-1/2020 infection of Vero E6 cells

CN(C)CCOC(c1ccccc1)c1ccccc1 [diphenhydramine]
EC50: 17.4 µg/mL (≈ 68.1 µM)
